In the supplement of paper PMC8166895:
Structures can show the parent of a compound that is named as a salt. This is one part of the list. Most entries show no effect beyond the scatter of the controls.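 A single-replicate pilot screen of approved drugs and clinical or known-target compounds measured melting temperature via differential scanning fluorimetry. Top stabilizing hits raised the melting point by 2 °C or more; negative shifts indicate destabilization.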

test system: SARS-CoV-2 main protease (Mpro, nsp5); test: thermal shift ΔTm of Mpro relative to plate average Tm; higher = stronger thermal stabilization of Mpro (binding); settings: 10 µM; protein concentration 1 µM

SMILES | thermal shift ΔTm of Mpro [°C]
CCCCCCCCCCCCCCOc1ccc(C(=O)O)o1 | -1.25
Cc1ccc(Nc2nnc(Cc3ccncc3)c3ccccc23)cc1Br | -0.108
O=C1CN2Cc3c(ccc(Cl)c3Cl)N=C2N1 [Anagrelide HCl] | 0.162
O=C1CN2Cc3c(ccc(Cl)c3Cl)N=C2N1 [Anagrelide] | 0.0366
CC(C)[C@H](N)C(=O)N1CCC[C@H]1B(O)O [Talabostat mesylate] | 0.137
COCCN1CCN(Cc2ccc(-c3n[nH]c4c3C(=O)c3c(NC(=O)NN5CCOCC5)cccc3-4)cc2)CC1 | 0.188
COC(=O)C1=CCCN(C)C1 [Arecoline] | 0.00899
CN(C)Cc1c(C(=O)NCCOc2ccc(C(=O)NO)cc2)oc2ccccc12 | 0.211
CC(C)NCC(O)COc1ccc(COCCOC(C)C)cc1 (stereo unspecified) [Bisoprolol fumarate] | 0.247
NCCCNc1ccc(Nc2nccc(Nc3cc(C4CC4)[nH]n3)n2)cc1 | 0.205
CNCC(=O)c1ccc(O)c(O)c1 [Adrenalone HCl] | -0.204
Oc1cccc(Nc2ncc(F)c(Nc3cccc(O)c3)n2)c1 [(E)-Elafibranor] | 0.275
O=c1cc(-c2ccc(O)cc2)oc2cc(O)cc(O)c12 [Apigenin] | 0.264
CCN(CC)C(=O)[C@@]1(c2ccccc2)C[C@H]1CN [Levomilnacipran] | 0.379
COc1ccc(S(=O)(=O)N(CCO)c2ccccc2CN(C)CC=Cc2ccc(Cl)cc2)cc1 | -0.0785
C[C@@H](N)[C@H]1CC[C@H](C(=O)Nc2ccncc2)CC1 | 0.14
NNC(=O)c1ccccn1 [2-Picolinyl hydrazide] | 0.203
c1cnc2cc3c(cc2n1)[C@@H]1CNC[C@H]3C1 [Varenicline] | -0.0678
c1cnc2cc3c(cc2n1)[C@@H]1CNC[C@H]3C1 [Varenicline Tartrate] | -0.0409
CC(=O)OCC(COC(C)=O)OC(C)=O [Triacetin] | -0.00728
Fc1ccc2c(/C=C/c3nn[nH]n3)c[nH]c2c1 | 0.117
CC(=O)N[C@H]1CSSC[C@@H](C(N)=O)NC(=O)[C@H](C(C)C)NC(=O)[C@H](C)NC(=O)[C@H](Cc2c[nH]cn2)NC1=O [Exherin] | 0.104
O=C(CCCCCCNC(=O)c1cnc(N(c2ccccc2)c2ccccc2)nc1)NO [Rocilinostat (ACY-1215)] | -0.222
O=c1ncccn1[C@@H]1O[C@H](CO)[C@@H](O)[C@H]1O [Zebularine] | 0.0563
CC(C)N(CCNC(=O)CN1CCCC1=O)C(C)C [Pramiracetam] | -0.0349
COc1cccc(CNC(=O)Nc2nc(-c3ccncc3)cs2)c1 | -0.00201

SMILES | thermal shift ΔTm of Mpro [°C]
NC(CO)(CO)CO [Trometamol] | -0.0655
C=CCCCCCCCCC(=O)O[C@H]1CC[C@H]2[C@@H]3CCC4=CC(=O)C=C[C@]4(C)[C@H]3CC[C@]12C [Parenabol] | -0.359
C=CC(=O)N1CCN(C(=O)CNc2cc(I)c(Cl)cc2O)CC1 [K-Ras(G12C) inhibitor 12] | -0.243
CO[C@@H]1[C@@H](O[C@@H]2O[C@H](C)[C@@H](O[C@H]3C[C@@](C)(O)[C@@H](O)[C@H](C)O3)[C@H](N(C)C)[C@H]2O)[C@@H](CC=O)C[C@@H](C)[C@@H](O[C@H]2CC[C@H](N(C)C)[C@@H](C)O2)/C=C/C=C/C[C@@H](C)OC(=O)C[C@H]1OC(C)=O [Acetylspiramycin] | 0.197
Clc1ccc(C(Cn2ccnc2)OCc2c(Cl)cccc2Cl)c(Cl)c1 (stereo unspecified) [Isoconazole nitrate] | -0.178
CC(C)n1nc(-c2cc3cc(O)ccc3[nH]2)c2c(N)ncnc21 | 0.785
CCOC(=O)c1cnn(-c2ccccc2)c1NC(=O)c1cc2nc(-c3ccco3)cc(C(F)(F)Cl)n2n1 [Mycro-3] | 0.271
NC(=O)N1c2ccccc2C=Cc2ccccc21 [Carbamazepine] | -0.265
Cc1ccc(S(=O)(=O)Nc2cc(C(F)(F)F)ccc2C(=O)Nc2nc(-c3ccccc3)cs2)cc1 | 0.106
CC(=O)Nc1cccc2c1c(Sc1ccc(Cl)cc1)c(C)n2CC(=O)O | 0.0597
CC(COc1ccccc1)N(CCCl)Cc1ccccc1 (stereo unspecified) [Phenoxybenzamine HCl] | -0.00786
Nc1ncn([C@@H]2O[C@H](CO)[C@@H](O)[C@H]2O)c(=O)n1 [Azacitidine] | 0.0637
Cc1c(N)nc(C(CC(N)=O)NCC(N)C(N)=O)nc1C(=O)NC(C(=O)NC(C)C(O)C(C)C(=O)NC(C(=O)NCCc1nc(-c2nc(C(=O)NCCC[S+](C)C)cs2)cs1)C(C)O)C(O[C@@H]1O[C@@H](CO)[C@@H](O)[C@H](O)[C@@H]1O[C@H]1O[C@H](CO)[C@@H](O)[C@H](OC(N)=O)[C@@H]1O)c1cnc[nH]1 (stereo partly specified) [Bleomycin Sulfate] | 0.287
CCCNC(C)C(=O)Nc1ccccc1C (stereo unspecified) [Prilocaine] | 0.0219
CCCNC(C)C(=O)Nc1ccccc1C (stereo unspecified) [Propitocaine hydrochloride] | 0.125
O=C(O)c1ncn[nH]1 [1H-1,2,4-Triazole-3-carboxylic acid] | 0.179
COc1cc(/C=C/C(=O)N2CCN(CC(=O)N3CCCC3)CC2)cc(OC)c1OC [Cinepazide maleate] | -0.0659
CCCCCCCCCCCCCCCCCCOP(=O)([O-])OC1CC[N+](C)(C)CC1 [Perifosine] | 0.0636
O=C(Nc1ccc(OC(F)(F)F)cc1)c1sccc1NCc1ccnc2ccccc12 | 0.431
O=C(c1cccc(Br)c1)N1CCC(N2CCCC2)CC1 [UNC 926 hydrochloride] | -0.0359
Cc1c(-c2ccnn2C)cc(C(=O)NCc2ccc(S(C)(=O)=O)cn2)c(=O)n1-c1cccc(C(F)(F)F)c1 [Alvelestat (AZD9668)] | -0.0124
CCCCC[C@H](O)/C=C/[C@@H]1[C@@H](C/C=C\CCCC(=O)O)[C@@H](O)C[C@H]1O [Dinoprost Tromethamine] | -0.00295
CCC(N)(C(=O)O)c1ccc(C(=O)O)cc1 (stereo unspecified) | -0.0783
CCOC(=O)c1ccc(OC(=O)CCCCCNC(=N)N)cc1 [Gabexate Mesylate] | 0.139
Cc1cc(C#N)c(N)s1 [2-Amino-5-methyl-3-thiophenecarbonitrile] | 0.272
CCCN[C@H]1CCc2nc(N)sc2C1 [Pramipexole] | -0.0901

Nothing new here: entries from further up.
SMILES | thermal shift ΔTm of Mpro [°C]
CC(=O)Nc1cccc2c1c(Sc1ccc(Cl)cc1)c(C)n2CC(=O)O | 0.0597
CC(COc1ccccc1)N(CCCl)Cc1ccccc1 (stereo unspecified) [Phenoxybenzamine HCl] | -0.00786
Nc1ncn([C@@H]2O[C@H](CO)[C@@H](O)[C@H]2O)c(=O)n1 [Azacitidine] | 0.0637
Cc1c(N)nc(C(CC(N)=O)NCC(N)C(N)=O)nc1C(=O)NC(C(=O)NC(C)C(O)C(C)C(=O)NC(C(=O)NCCc1nc(-c2nc(C(=O)NCCC[S+](C)C)cs2)cs1)C(C)O)C(O[C@@H]1O[C@@H](CO)[C@@H](O)[C@H](O)[C@@H]1O[C@H]1O[C@H](CO)[C@@H](O)[C@H](OC(N)=O)[C@@H]1O)c1cnc[nH]1 (stereo partly specified) [Bleomycin Sulfate] | 0.287
CCCNC(C)C(=O)Nc1ccccc1C (stereo unspecified) [Prilocaine] | 0.0219
CCCNC(C)C(=O)Nc1ccccc1C (stereo unspecified) [Propitocaine hydrochloride] | 0.125
O=C(O)c1ncn[nH]1 [1H-1,2,4-Triazole-3-carboxylic acid] | 0.179
COc1cc(/C=C/C(=O)N2CCN(CC(=O)N3CCCC3)CC2)cc(OC)c1OC [Cinepazide maleate] | -0.0659
CCCCCCCCCCCCCCCCCCOP(=O)([O-])OC1CC[N+](C)(C)CC1 [Perifosine] | 0.0636
O=C(Nc1ccc(OC(F)(F)F)cc1)c1sccc1NCc1ccnc2ccccc12 | 0.431
O=C(c1cccc(Br)c1)N1CCC(N2CCCC2)CC1 [UNC 926 hydrochloride] | -0.0359
Cc1c(-c2ccnn2C)cc(C(=O)NCc2ccc(S(C)(=O)=O)cn2)c(=O)n1-c1cccc(C(F)(F)F)c1 [Alvelestat (AZD9668)] | -0.0124
CCCCC[C@H](O)/C=C/[C@@H]1[C@@H](C/C=C\CCCC(=O)O)[C@@H](O)C[C@H]1O [Dinoprost Tromethamine] | -0.00295
CCC(N)(C(=O)O)c1ccc(C(=O)O)cc1 (stereo unspecified) | -0.0783
CCOC(=O)c1ccc(OC(=O)CCCCCNC(=N)N)cc1 [Gabexate Mesylate] | 0.139
Cc1cc(C#N)c(N)s1 [2-Amino-5-methyl-3-thiophenecarbonitrile] | 0.272
CCCN[C@H]1CCc2nc(N)sc2C1 [Pramipexole] | -0.0901

(continued)

SMILES | thermal shift ΔTm of Mpro [°C]
CCCN[C@H]1CCc2nc(N)sc2C1 [Pramipexole dihydrochloride monohydrate] | 0.0369
CC(C)(C)Cn1c(N)nc2ccc(-c3[nH]c(C(C)(C)C)nc3-c3ccc(F)cc3)nc21 | 0.0143
O=C(NC1CCN(CCCCC2(C(=O)NCC(F)(F)F)c3ccccc3-c3ccccc32)CC1)c1ccccc1-c1ccc(C(F)(F)F)cc1 [Lomitapide Mesylate] | -0.0583
O=C(NC1CCN(CCCCC2(C(=O)NCC(F)(F)F)c3ccccc3-c3ccccc32)CC1)c1ccccc1-c1ccc(C(F)(F)F)cc1 [Lomitapide] | -0.206
COc1ccc(C(=O)CC2(O)C(=O)Nc3c(Cl)ccc(Cl)c32)cc1 (stereo unspecified) | -0.179
Cc1cc(=O)oc2cc(O)ccc12 [4-Methylumbelliferone (4-MU)] | -0.0796
C/C=C1/[C@H](O[C@@H]2O[C@H](CO)[C@@H](O)[C@H](O)[C@H]2O)OC=C(C(=O)OC)[C@H]1CC(=O)OCCc1ccc(O)c(O)c1 [Oleuropein] | 1.97
Clc1cccc(-c2nnnn2Cc2cccnc2)c1Cl | -0.172
CC(C)C[C@H](NC(=O)[C@@H](COC(C)(C)C)NC(=O)[C@H](Cc1ccc(O)cc1)NC(=O)[C@H](CO)NC(=O)[C@H](Cc1c[nH]c2ccccc12)NC(=O)[C@H](Cc1cnc[nH]1)NC(=O)[C@@H]1CCC(=O)N1)C(=O)N[C@@H](CCCNC(=N)N)C(=O)N1CCC[C@H]1C(=O)NNC(N)=O [Goserelin acetate] | 0.146
COc1cccc(-c2ccc(NC(=O)C3=C(C(=O)O)CCC3)c(F)c2)c1 [Vidofludimus] | 0.169
Cn1c(=O)c2nc[nH]c2n(C)c1=O [Theophylline monohydrate] | 0.165
N#Cc1ccc(-c2c(-c3ncn[nH]3)sc(N3CCOCC3)c2C#N)c(F)c1 | -0.206
COc1cc2c(Oc3ccc4[nH]c(C)cc4c3F)ccnc2cc1OCC1(N)CC1 [Anlotinib Dihydrochloride] | -0.105
CC(C)(C)c1[nH]cnc1/C=c1\[nH]c(=O)/c(=C/c2ccccc2)[nH]c1=O [Plinabulin (NPI-2358)] | 0.0766
Cn1c(=O)cc(N2CCC[C@@H](N)C2)n(Cc2cc(F)ccc2C#N)c1=O [Trelagliptin succinate] | 0.144
Cn1c(=O)cc(N2CCC[C@@H](N)C2)n(Cc2cc(F)ccc2C#N)c1=O [Trelagliptin] | -0.255
NCCOc1cc(C(=O)Nc2cc(OCCN)c3ccccc3n2)nc(C(=O)Nc2cc(OCCN)c3ccccc3n2)c1 [Pyridostatin] | 0.0899
COc1cc(OC)c2c(=O)[nH]c(-c3cc(C)c(OCCO)c(C)c3)nc2c1 | -0.175
Cc1cc(OCCN2CCOCC2)nn1-c1ccc2ccccc2c1 [S1RA hydrochloride] | -0.0328
CC(C)[C@H]1C(=O)N[C@@H](CCCNC(=N)N)C(=O)NCC(=O)N[C@@H](CC(=O)O)C(=O)N[C@H](Cc2ccccc2)C(=O)N1C [Cilengitide] | 0.0557
O=C(c1cccc(Cl)c1F)N1CCN(Cc2cccc(Nc3nccs3)n2)CC1 | -0.0897
NCCCC[C@H](N[C@@H](CCc1ccccc1)C(=O)O)C(=O)N1CCC[C@H]1C(=O)O [Lisinopril dihydrate] | 0.0429
COc1ccc2nc(/C=C/c3cccc([N+](=O)[O-])c3)n(-c3ccc(C(=O)O)cc3)c(=O)c2c1 | 0.0764
CC(C)(C)NC[C@H](O)COc1nsnc1N1CCOCC1 [Timolol Maleate] | -0.0873
